For experiment [1], the target named is FHR residues 25-251 for crystallography (T. brucei (TREU 927)) (UniProt Q57Z47). Kind of experiment: crystal structure; FHR and FH domain 5 mixed 1 : 1.05, complex purified by SEC; crystals at 18 °C, pH 5.5; 2.70 Å; both purified. On the technique in general: Size exclusion chromatography separates by hydrodynamic size, large species first.
For experiment [2], the target named is GST-Tb927.5.4020 (GST-FHR, residues 25-251) (T. brucei (TREU 927)) (UniProt Q57Z47). The experiment is described as follows: pull-down; GST fusion protein (1 mg) on glutathione-sepharose 4B, incubated with 1 ml serum for 60 min, 3 rapid PBS washes; eluate on SDS-PAGE, band identified by mass spectrometry; only the target purified.
The target of experiment [3] is GST-FHR mutant 2 (E31A, Q34A) (T. brucei (Lister 427)). The description is as above.
For experiment [4], the target named is GST-FHR mutant 1 (K46A, R47A) (T. brucei (Lister 427)). The description is as above.
Experiment [5] deals with GST-FHR wild type (residues 25-249) (T. brucei (Lister 427)). The description is as above.
In experiment [6] the target is FHR on the surface of T. brucei procyclic forms (FHR+/+ PCFs) (T. brucei (endogenous in strain J10 PCFs)). Kind of experiment: live-cell binding assay (fluorescence microscopy); 100 nM fluorescently labelled bovine FH added to PCFs in culture for 2 h, cells then fixed and visualized; FHR-/- cells as control; only the binder purified.

These are yes or no findings as the source states them, for the method shown. For part of these data: Binding can be weak; no strength is given. For part of these data: Where a sequence is shown, tags or fusion partners need not be part of it. For part of these data: Binding seen in cells or lysates may run through a third protein.

B1: bovine FH domain 5 (residues 264-323), tags removed, for crystallography (domain or fragment, UniProt Q28085 264-323)
chain: EITCDPPRIPNGVYRPELSKYRGQDKITYECKKGFFPEIRGTDATCTRDGWVPVPRCAWK
With B1, in experiment [1], the binding entry was “binds”.

B2: bovine complement factor H from serum (protein, UniProt Q28085 19-1236)
chain: EDCKEPPPRKETEILSGSWTEQTYQEGTQATYKCRPGYRTLGSIVMMCRGGKWVSLHPSRICRKKPCAHPGDTPFGSFHLAEGTQFEYGAKVVYTCDEGYQMVGEMNFRECDTNGWTNDIPICEVVKCLPVTEPENGKIFSDALEPDQEYTYGQVVQFECNSGYMLDGPKQIHCSAGGVWSAETPKCVEIFCKTPVILNGQAVLPKATYKANERVQYRCAAGFEYGQRGDTICTKSGWTPAPTCIEITCDPPRIPNGVYRPELSKYRGQDKITYECKKGFFPEIRGTDATCTRDGWVPVPRCAWKPCSYPVIKHGRLYYSYRGYFPARVNQQFVYSCDHHFVPPSQRSWDHLTCTAEGWSPEEPCLRQCIFNYLENGHTPYREEKYLQGETVRVRCYEGYSLQNDQNTMTCTESGWSPPPRCIRVKTCSKSNIRIENGFLSESTFTYPLNKQTEYKCKPGYVTADGKTSGLITCLKNGWSAQPVCIKSCDRPVFEKARVKSDGTWFRLNDRLDYECVDGYENRDGRTTGSIVCGQDGWSDKAACYERECSIPEMDPYLNAYPRKETYKVGDVLKFSCSQGRIMVGADSVQCYHFGWSPKLPTCKVKKVKSCALPPELPNGKRKEIHKEEYAHNEVVEYACNPRFLMKGSHKIQCVDGEWTALPVCIEEERTCGNIPDLDHGDVKPSVPPYHHGDSVEFSCREAFTMIGPRFITCISGEWTQPPQCIATDELRKCKGSTLFPPEGRQAHKIEYDHNTNKSYQCRGKSEHKHSICINGEWDPKVDCNEEAKIQLCPPPPQVPNACDMTTTVNYQDGEKISILCKENYLIQDAEEIVCKDGRWQSIPRCIEKIGCSQPPQIDHGTISSSSSAEERREIHEQRLYAHGTKLSYTCEEGFEISENNVIICHMGKWSSPPQCVGLPCGLPPYVQNGVVSHKKDRYQYGEEVTYDCDEGFGTDGPASIRCLGGEWSRPQDCISTNCVNLPTFEDAVLTDREKDFYRSGEQVAFKCLSYYQLDGSNTIQCIKSKWIGRPACRDVSCGNPPQVENAIIHNQKSKYQSEERARYECIGNYDLFGEMEVVCLNGTWTEPPQCKDSQGKCGPPPPIDNGDITSLLQSVYPPGMIVEYRCQAYYELRGNKNVVCRNGEWSQLPKCLEACVISEETMRKHHIQLRWKHDKKIYSKTEDTIEFMCQHGYRQLTPKHTFRATCREGKVVYPRCG
Regarding B2, the binding result in experiment [2] is recorded as “binds”; in experiment [3] it was “no binding”; in experiment [4] it was “binds”; in experiment [5], “binds”.

B3: fluorescently labelled bovine FH purified from serum (protein, UniProt Q28085 19-1236)
chain: B2 chain
modifications: fluorescently labelled
For B3, in experiment [6], the binding result is listed as “binds”.

For the origin of these results see publication PMC7067766.
